Data taken from patent US20130078247A1.

Columns and labels:
[1] = target: mDLL4.8; assay: SPR Biacore; VHH on CM4 chip, deletion mutant injected
[2] = target: hDLL4.1; assay: as above
[3] = target: mouse DLL4 deletion mutant mDII4.8 (lacking the EGF-like 2 domain) (mouse); assay: Biacore, VHH coated, deletion mutant injected
[4] = target: human DLL4 deletion mutant hDII4.1 (lacking the EGF-like 2 domain) (human); assay: Biacore, VHH coated, deletion mutant injected

Measured: binding

B1: DLLBII56A09 (VHH, not shown: small tags and cut ends)
VHH: EVQLVESGGGLVQPGGSLRLSCAASGFTFDDYAIGWFRQAPGKEPEGISCISSSGGITYYADSVKGRFTTSRDNAKNTVYLQMNSLKPEDTAVYYCATPGIAACRGIHYTGQGTQVTVSS
no binding (tested: 200 nM): [1] | [2] | [3] | [4]

B2: DLLBII101G08 (VHH, not shown: small tags and cut ends)
VHH: EVQLVESGGGLVQAGGSLRLSCAASGRTFSSYAMAWFRQAPGKEREFVAAIRWSGGTAYYADSVQGRFTISRDNAKNTVYLQMNSLKPEDTAVYYCANRAADTRLGPYEYDYWGQGTQVTVSS
no binding (tested: 200 nM): [1] | [2] | [3] | [4]

B3: DLLBII115A05 (VHH, not shown: small tags and cut ends)
VHH: EVQLVESGGGLVQPGGSLRLSCAASGFTFGSYDMSWVRRSPGKGPEWVSSINSGGGSTYYADFVKGRFTISRDNAKNTLYLQMNSLKPEDTAVYYCAADRYIRARQGDYWGAYEYDYWGQGTQVTVSS
no binding (tested: 200 nM): [1] | [2] | [3] | [4]

No constants are given. Whether binding was seen depends on the method and setting.
